From publication doi:10.1101/258285
Like-named read-outs stand apart in the source and are kept apart here. No constants are given. Whether binding was seen depends on the method and setting. In cells and extracts the contact can be indirect. Some binding calls cover weakened binding; strength is not graded here. For part of these data: Sequences can lack the tags named with a protein.

The chains behind the UniProt entries cited, without tags or fusion partners. Where a name states a change or a piece, a line headed by the entry shows the natural chain unless it says otherwise.
UniProt P09429: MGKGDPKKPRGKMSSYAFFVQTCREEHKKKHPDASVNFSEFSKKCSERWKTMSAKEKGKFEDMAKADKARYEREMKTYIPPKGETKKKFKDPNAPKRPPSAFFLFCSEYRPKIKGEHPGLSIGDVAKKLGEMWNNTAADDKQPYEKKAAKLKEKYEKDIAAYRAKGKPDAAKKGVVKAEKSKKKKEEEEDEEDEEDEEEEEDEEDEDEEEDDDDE
UniProt O14980: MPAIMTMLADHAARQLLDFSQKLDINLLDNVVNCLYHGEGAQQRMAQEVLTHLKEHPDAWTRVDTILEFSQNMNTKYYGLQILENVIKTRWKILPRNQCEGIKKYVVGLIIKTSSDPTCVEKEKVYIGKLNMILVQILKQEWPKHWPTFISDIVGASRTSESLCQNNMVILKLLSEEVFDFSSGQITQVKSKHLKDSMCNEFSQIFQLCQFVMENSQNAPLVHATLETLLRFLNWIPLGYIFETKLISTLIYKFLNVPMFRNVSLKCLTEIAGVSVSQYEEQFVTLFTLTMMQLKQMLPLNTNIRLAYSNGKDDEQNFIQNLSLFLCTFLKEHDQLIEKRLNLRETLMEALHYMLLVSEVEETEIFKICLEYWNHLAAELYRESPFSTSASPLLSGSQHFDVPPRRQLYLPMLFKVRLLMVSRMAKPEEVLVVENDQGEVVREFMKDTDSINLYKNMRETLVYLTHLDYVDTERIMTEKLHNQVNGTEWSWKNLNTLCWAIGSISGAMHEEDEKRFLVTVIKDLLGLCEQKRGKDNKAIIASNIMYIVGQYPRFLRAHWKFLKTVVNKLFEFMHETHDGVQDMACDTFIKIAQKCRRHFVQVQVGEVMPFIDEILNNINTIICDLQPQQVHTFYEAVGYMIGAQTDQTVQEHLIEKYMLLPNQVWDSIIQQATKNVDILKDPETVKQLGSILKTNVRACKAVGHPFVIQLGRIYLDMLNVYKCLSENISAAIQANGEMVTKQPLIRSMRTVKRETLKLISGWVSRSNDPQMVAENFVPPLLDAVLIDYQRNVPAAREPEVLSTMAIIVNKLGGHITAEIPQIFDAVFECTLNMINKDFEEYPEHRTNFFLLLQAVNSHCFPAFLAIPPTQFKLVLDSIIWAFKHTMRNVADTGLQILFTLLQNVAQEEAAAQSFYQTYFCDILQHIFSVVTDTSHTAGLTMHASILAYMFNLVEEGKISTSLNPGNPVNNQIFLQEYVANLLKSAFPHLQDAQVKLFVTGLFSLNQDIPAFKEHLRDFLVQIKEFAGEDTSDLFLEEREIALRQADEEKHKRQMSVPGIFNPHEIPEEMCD
UniProt P63158: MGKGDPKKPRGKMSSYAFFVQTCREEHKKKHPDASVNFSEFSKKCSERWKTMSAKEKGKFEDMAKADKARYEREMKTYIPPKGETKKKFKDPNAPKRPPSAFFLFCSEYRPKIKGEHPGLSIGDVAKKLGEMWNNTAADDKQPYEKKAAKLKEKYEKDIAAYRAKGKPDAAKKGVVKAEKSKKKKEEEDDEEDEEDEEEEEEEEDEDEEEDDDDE

Columns and labels:
[1] = molecular target: Myc epitope–tagged human HMGB1(C23S) (human) (UniProt P09429); assay: co-IP
[2] = molecular target: Myc epitope–tagged human HMGB1(C45S) (human) (UniProt P09429); assay: co-IP
[3] = molecular target: Myc epitope–tagged human HMGB1(WT) (human) (UniProt P09429); assay: co-IP
[4] = molecular target: T1, Myc- and His6-tagged human PrxI (human) (UniProt Q06830); assay: co-IP
T1 sequence: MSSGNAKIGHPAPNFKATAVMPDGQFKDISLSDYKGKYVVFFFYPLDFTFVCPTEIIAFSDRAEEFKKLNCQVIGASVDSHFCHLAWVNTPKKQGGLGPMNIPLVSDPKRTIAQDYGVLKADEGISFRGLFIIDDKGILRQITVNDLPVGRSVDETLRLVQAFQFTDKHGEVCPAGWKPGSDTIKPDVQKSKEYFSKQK

[5] = molecular target: T2, Myc- and His6-tagged human PrxII (human) (UniProt P32119); assay: co-IP
T2 sequence: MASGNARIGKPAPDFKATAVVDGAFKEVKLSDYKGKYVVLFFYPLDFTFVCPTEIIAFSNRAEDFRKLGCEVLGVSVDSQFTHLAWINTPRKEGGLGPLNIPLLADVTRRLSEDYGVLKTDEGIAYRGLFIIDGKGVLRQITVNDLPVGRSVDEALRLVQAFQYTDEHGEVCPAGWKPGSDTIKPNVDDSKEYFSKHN

[6] = molecular target: T3, endogenous PrxII of HEK293T cells (human (endogenous in HEK293T)) (UniProt P32119); assay: proximity ligation
T3 sequence: T2 sequence

[7] = molecular target: T1, Myc- and His6-tagged human PrxI (human); assay: co-IP; remark: listed apart in the source
[8] = molecular target: T2, Myc- and His6-tagged human PrxII (human); assay: co-IP; remark: listed apart in the source
[9] = molecular target: Myc epitope–tagged human HMGB1(C23S) (human) (UniProt P09429); assay: proximity ligation
[10] = molecular target: Myc epitope–tagged human HMGB1(C45S) (human) (UniProt P09429); assay: proximity ligation
[11] = molecular target: Myc epitope–tagged human HMGB1(WT) (human) (UniProt P09429); assay: proximity ligation
[12] = molecular target: T4, endogenous mouse PrxII (mouse (endogenous in MEFs and BMDMs)) (UniProt Q61171); assay: proximity ligation
T4 sequence: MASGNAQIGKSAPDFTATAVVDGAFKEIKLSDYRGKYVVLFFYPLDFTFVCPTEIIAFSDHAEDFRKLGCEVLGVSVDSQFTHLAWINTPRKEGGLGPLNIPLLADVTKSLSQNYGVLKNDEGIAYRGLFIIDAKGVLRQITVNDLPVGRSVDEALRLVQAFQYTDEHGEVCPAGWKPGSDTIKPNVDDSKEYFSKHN

Substance | binding [4] | binding [5] | binding [6] | binding [7] | binding [8] | other results
CRM1 (chromosome region maintenance protein 1), transfected (from UniProt O14980 1-1071) | – | – | – | – | – | binding [1]: binds; binding [2]: binds; binding [3]: binds
Myc epitope–tagged human HMGB1(C45S) (from UniProt P09429 1-215) | binds | binds | binds | binds | binds | –
endogenous CRM1 of HEK293T cells (from UniProt O14980 1-1071) | – | – | – | – | – | binding [9]: binds; binding [10]: binds; binding [11]: binds
endogenous HMGB1 of MEFs (from UniProt P63158 1-215) | – | – | – | – | – | binding [12]: binds

More lines, main results first:

binding [4] | binding [5] | binding [6] | binding [7] | binding [8] | Substance | other results
binds | binds | binds | binds | binds | Myc epitope–tagged human HMGB1(C23S) (from UniProt P09429 1-215) | –
– | – | binds | – | – | Myc epitope–tagged human HMGB1(WT) (from UniProt P09429 1-215) | –
